Results are given in words; binding and its absence hold for the method and conditions named. Binding seen in cells or lysates may run through a third protein. Some results given as binding are weak or reduced against the parent protein; the word gives no strength. For some assays here: Where a sequence is shown, tags or fusion partners need not be part of it.

Amino acid sequences for entries named in this document (tags omitted).
UniProt P01106: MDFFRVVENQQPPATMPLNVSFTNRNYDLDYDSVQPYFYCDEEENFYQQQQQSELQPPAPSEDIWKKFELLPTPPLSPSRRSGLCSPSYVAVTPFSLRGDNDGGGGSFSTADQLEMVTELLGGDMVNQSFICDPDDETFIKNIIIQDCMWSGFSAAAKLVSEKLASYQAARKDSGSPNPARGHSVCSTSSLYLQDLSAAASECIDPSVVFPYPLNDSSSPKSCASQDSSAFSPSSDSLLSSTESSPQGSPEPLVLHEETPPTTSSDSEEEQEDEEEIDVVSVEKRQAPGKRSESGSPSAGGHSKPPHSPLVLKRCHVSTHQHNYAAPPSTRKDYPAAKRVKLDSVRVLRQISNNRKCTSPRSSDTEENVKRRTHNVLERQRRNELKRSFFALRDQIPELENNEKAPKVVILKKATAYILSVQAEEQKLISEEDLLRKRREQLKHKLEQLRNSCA

For assay [1], the target named is T1, FLAG-tagged MYEOV (human) (UniProt Q96EZ4).
T1 sequence: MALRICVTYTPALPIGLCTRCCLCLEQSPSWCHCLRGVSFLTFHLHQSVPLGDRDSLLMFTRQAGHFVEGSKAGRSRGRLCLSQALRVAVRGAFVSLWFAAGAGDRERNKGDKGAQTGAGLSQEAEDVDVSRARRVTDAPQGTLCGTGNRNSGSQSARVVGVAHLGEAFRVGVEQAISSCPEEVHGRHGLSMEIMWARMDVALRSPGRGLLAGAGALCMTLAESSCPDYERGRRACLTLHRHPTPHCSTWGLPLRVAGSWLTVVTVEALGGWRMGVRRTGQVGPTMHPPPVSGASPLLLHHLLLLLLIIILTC
Description: co-IP; IP of FLAG-MYEOV from lysates of transfected 293 T cells, Western blot for HA-MYC; lysis buffer 50 mM Tris-Cl pH 7.4, 150 mM NaCl, 0.5% Triton X-100, 1 mM EDTA; 4 °C; protein A/G agarose beads.

Assay [2] has as its target T2, endogenous MYEOV (human (endogenous in PANC-1)) (UniProt Q96EZ4).
T2 sequence: T1 sequence
Description: co-IP; endogenous proteins from PANC-1 cell lysate; lysis buffer 50 mM Tris-Cl pH 7.4, 150 mM NaCl, 0.5% Triton X-100, 1 mM EDTA; 4 °C; protein A/G agarose beads.

Consider “HA-tagged MYC (from UniProt P01106 1-454)”, for which, in assay [1], the binding result is on record as “binds”. Consider “endogenous MYC (from UniProt P01106 1-454)”, for which the binding entry in assay [2] is on record as “binds”.

For the origin of these results see article PMC8688437.
